Experimental data: patent US20040107456A1 (ACADEMIA SINICA, published 2004)

How the values were obtained:
[1] = target: T1, GBD-OsMYBS2 fusion protein (yeast; rice); test: two-hybrid in barley aleurone cells, luciferase reporter; similar results in yeast two-hybrid
T1 construct: Two-hybrid bait
Experimental: (§1) In c-Myb, R2 and R3 bind to specific DNA sequences cooperatively. To test the possibility that OsMYBS binds DNA as dimers, homologous and heterologous interactions among OsMYBS proteins were analyzed using a two-hybrid system in barley aleurone cells. The full-length OsMYBS sequences were individually fused at the C-terminus of GAD or GBD. The GAD-OsMYBS and GBD-OsMYBS chimeric genes were fused downstream of the Ubi promoter and used as effector constructs. A DNA fragment containing five tandem repeats of UAS (5×UAS) was fused upstream of the CaMV35S minimal promoter-Luc chimeric gene and used as a reporter construct. The barley half seeds were particle-bombarded simultaneously with two effector plasmids, each containing GAD-OsMYBS and GBD-OsMYBS fusion genes, and the reporter plasmid. The bombarded half seeds were incubated in buffer without glucose for 24 h, and luciferase activity was determined. […] Except that the background level of reporter gene expression in the presence of GBD-OsMYBS1 alone is too high to detect the interactions between GBD-OsMYBS1 and GAD-OsMYBS proteins, similar results were obtained with the yeast two-hybrid experiments.

[2] = target: T2, GBD-OsMYBS3 fusion protein (yeast; rice); test: as above
T2 construct: Two-hybrid bait
Experimental: as §1

[3] = target: T3, GBD-OsMYBS1 fusion protein (yeast; rice, UniProt P04386 1-147); test: two-hybrid in barley aleurone cells, luciferase reporter
T3 construct: Two-hybrid bait expressed from the Ubi promoter in barley aleurone cells
Experimental: as §1

Measured: binding result

B1: GAD-OsMYBS2 fusion protein (other)
chain: MPNLTSIDPLPVPADGGKRRASDDSELASGQQKRRRRKVQERKKGVPWTEEEHKKFLEGLRQLGKGDWRGISKNFVTSRTATQVASHAQKYFLRQTNPGKKKRRASLFDVVAECSDDQLPSPQSVGTKPPTQDIIHTDRGDVPILSYPVARGFRGDSVQVDELTEYVKRLKAAEDMSLSMISGLEMASSSISSLELSIAPSHLRIDGAIKGLGSKPNFPPKEFGSASATVFCPPCCCLLLLFFFFFFAGVVCCCCCCSCHANFVFGSCGVSFTSFI
notes: Two-hybrid prey expressed from the Ubi promoter in barley aleurone cells; not shown: limits not
no binding: all assays above
